Measurements from paper PMC7938106, “In vitro complex formation of human PYRIN domain-only protein 3 prevented by self-oligomerization of ASC PYD domain” (Saudi Journal of Biological Sciences, 2021).
No constants are given. Whether binding was seen depends on the method and setting.

Amino acid sequences for entries named in this document (tags omitted). Residues count along the entry.
UniProt Q9ULZ3, residues 1-96: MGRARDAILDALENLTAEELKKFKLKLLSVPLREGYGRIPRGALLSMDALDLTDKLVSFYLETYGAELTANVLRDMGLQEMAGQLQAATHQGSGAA

Columns and labels:
[1] = target: ASC PYD domain, amino acids 1-96 (human) (UniProt Q9ULZ3); assay: native gel or EMSA; native PAGE, 8-25% acrylamide gradient gels, Coomassie stain; purified POP3 PYD (1-83) and ASC PYD (1-96); both purified
[2] = target: ASC PYD domain, amino acids 1-96 (human) (UniProt Q9ULZ3); assay: SEC; POP3 PYD (1-83) and ASC PYD (1-96) mixed at a molar ratio of about 1:1, pre-incubated 60 min at 4 °C; Superdex 200 HR 10/30 in 20 mM Tris-HCl pH 8.0, 150 mM NaCl; both purified

B1: PYD domain of PYRIN Domain-Only Protein 3 (POP3), amino acids 1-83 (domain or fragment, human, UniProt W6CW81 1-83, looked up)
chain: MESKYKEILLLTSLDNITDEELDRFKCFLPDEFNIATGKLHTLNSTSSQLDLKRWHGVCSEEDRIFQKLNYMLVAKCLREEQE
notes: PYRIN domain-only protein 3 (POP3), human, PYD domain, residues 1-83 of the 113-residue protein; The vector probably adds linker residues before the His6; also called POP3 PYD (1-83 aa); POP3PYD; not shown: His6, C-terminal, kept
With B1 as the binder, how does the binding [1] read?
The binding was “no binding”.

What about the binding [2] of the same binder?
The binding was “no binding”.
